Results on three substances are retold here after PMC10140023.

Protein sequences, listed by entry. Tags and fused reporters are not part of them. Lines headed by an entry give the natural chain unless they say otherwise; changes in a name come on top.
UniProt P01106: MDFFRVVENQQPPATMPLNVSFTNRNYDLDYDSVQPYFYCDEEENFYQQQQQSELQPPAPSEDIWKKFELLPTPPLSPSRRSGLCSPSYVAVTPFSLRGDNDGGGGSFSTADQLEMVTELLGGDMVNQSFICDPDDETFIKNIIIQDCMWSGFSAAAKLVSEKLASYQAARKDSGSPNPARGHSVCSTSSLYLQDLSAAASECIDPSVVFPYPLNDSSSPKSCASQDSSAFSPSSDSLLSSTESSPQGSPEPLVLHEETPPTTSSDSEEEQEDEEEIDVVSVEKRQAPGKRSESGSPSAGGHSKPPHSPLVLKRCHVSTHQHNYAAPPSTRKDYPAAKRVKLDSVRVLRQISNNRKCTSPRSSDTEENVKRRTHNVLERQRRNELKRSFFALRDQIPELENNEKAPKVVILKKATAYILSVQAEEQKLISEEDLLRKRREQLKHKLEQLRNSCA
UniProt P28340: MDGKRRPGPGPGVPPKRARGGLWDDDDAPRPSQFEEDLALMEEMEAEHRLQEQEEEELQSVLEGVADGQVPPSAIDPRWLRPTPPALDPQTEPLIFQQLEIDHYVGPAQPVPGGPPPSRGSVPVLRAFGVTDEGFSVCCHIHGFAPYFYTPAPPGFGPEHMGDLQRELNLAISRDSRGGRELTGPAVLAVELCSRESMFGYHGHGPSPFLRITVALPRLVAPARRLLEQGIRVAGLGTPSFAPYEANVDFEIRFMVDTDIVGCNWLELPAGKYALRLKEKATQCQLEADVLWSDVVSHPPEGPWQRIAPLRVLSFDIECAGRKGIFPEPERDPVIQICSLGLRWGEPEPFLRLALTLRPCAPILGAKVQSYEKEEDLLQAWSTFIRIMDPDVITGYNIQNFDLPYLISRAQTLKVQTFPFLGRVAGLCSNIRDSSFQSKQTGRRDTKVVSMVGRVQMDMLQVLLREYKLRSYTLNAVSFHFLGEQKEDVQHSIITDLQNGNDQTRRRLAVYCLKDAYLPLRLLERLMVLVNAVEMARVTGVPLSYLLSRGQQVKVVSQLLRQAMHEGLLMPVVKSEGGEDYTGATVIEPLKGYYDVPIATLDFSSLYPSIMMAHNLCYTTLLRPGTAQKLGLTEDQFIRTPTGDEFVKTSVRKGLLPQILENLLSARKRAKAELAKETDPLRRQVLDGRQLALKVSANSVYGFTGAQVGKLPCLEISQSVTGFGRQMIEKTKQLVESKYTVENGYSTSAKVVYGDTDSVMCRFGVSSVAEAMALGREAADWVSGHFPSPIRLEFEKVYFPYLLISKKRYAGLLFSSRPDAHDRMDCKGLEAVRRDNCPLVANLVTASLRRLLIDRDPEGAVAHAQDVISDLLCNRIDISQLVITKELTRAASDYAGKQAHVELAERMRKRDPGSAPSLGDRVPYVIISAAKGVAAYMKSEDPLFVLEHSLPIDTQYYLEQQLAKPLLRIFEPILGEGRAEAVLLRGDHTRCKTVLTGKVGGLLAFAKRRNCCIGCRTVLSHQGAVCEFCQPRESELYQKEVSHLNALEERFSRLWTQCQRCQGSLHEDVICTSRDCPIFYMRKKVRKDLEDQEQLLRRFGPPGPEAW
UniProt Q969H0: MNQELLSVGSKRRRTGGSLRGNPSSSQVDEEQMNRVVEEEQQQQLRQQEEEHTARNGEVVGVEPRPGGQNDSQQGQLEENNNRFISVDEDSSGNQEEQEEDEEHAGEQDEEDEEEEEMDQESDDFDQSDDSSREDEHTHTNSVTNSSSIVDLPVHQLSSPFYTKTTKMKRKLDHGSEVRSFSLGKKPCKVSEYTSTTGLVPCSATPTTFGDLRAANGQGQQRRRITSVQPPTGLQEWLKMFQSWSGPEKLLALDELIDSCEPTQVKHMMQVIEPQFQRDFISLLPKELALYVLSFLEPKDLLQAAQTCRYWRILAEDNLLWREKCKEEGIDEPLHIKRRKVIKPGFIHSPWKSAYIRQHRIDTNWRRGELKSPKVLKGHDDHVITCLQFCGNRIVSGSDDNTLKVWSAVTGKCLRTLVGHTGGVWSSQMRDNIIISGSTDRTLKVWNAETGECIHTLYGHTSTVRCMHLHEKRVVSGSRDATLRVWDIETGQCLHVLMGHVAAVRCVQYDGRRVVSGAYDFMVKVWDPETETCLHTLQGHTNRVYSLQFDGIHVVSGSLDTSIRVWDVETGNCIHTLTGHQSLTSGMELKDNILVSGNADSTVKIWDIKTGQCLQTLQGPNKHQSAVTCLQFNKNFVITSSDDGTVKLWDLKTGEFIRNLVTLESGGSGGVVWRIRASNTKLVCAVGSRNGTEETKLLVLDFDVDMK

No constants are given. Whether binding was seen depends on the method and setting. For part of these data: A result given as binding can be weak or reduced; the word gives no strength. For part of these data: Binding seen in cells or lysates may run through a third protein.

Assay [1] addresses MYC-N-terminal-HA-tagged (amino acids 1-220) (human) (UniProt P01106). As to the kind of experiment: co-IP; tagged proteins co-expressed in 293T cells (1 x 10^6 cells); IP binding buffer (PBS, 0.3% Tween 20, 75 mM NaCl); antibody overnight at 4 °C, protein A (or A/G) magnetic beads; Western blot. A general note: Immunoblotting shows a protein as a band on a membrane.
In assay [2] the target is GST-MYC-1-105 (human) (UniProt P01106). The assay is described as follows: pull-down; GST pull-down with purified proteins (2 μg) in IP binding buffer, glutathione-Sepharose magnetic beads overnight at 4 °C; Western blot; both purified.
Assay [3] addresses GST-MYC-106-221 (human) (UniProt P01106). As to the kind of experiment: pull-down; GST pull-down: recombinant GST-MYC fragments with increasing recombinant His-POLD1 (0.1, 1.0, 3.0 μg) in the presence of lysate of 293T cells expressing Myc-FBXW7α△F; both purified.
Assay [4] has as its target GST-MYC-1-105 (human) (UniProt P01106). The assay is described as above.
The target in assay [5] is GST-MYC-106-221 (human) (UniProt P01106). As to the kind of experiment: pull-down; GST pull-down: recombinant GST-MYC fragments with lysate of 293T cells expressing Myc-FBXW7α△F and increasing recombinant His-POLD1 (0.1, 1.0, 3.0 μg); only the target purified.
Assay [6] has as its target GST-MYC-1-105 (human) (UniProt P01106). The description is as above.

Turning to GFP-POLD1 (from UniProt P28340 1-1107), the binding entry in assay [1] is given as “binds”.

For His-POLD1 (from UniProt P28340 1-1107), the binding entry was “binds” in assay [2]; “no binding (tested: 0.1, 1.0, and 3.0 μg His-POLD1)” in assay [3]; “binds” in assay [4].

For the substance “Myc-FBXW7α△F (F-box deletion mutant) (from UniProt Q969H0)”, the figures for the binding entry in assay [5] and in assay [6] were “no binding” and “binds”, respectively.
